## Library screening results

Amino acid sequences for entries named in this document (tags omitted).
UniProt E9BF75, entry or part of it: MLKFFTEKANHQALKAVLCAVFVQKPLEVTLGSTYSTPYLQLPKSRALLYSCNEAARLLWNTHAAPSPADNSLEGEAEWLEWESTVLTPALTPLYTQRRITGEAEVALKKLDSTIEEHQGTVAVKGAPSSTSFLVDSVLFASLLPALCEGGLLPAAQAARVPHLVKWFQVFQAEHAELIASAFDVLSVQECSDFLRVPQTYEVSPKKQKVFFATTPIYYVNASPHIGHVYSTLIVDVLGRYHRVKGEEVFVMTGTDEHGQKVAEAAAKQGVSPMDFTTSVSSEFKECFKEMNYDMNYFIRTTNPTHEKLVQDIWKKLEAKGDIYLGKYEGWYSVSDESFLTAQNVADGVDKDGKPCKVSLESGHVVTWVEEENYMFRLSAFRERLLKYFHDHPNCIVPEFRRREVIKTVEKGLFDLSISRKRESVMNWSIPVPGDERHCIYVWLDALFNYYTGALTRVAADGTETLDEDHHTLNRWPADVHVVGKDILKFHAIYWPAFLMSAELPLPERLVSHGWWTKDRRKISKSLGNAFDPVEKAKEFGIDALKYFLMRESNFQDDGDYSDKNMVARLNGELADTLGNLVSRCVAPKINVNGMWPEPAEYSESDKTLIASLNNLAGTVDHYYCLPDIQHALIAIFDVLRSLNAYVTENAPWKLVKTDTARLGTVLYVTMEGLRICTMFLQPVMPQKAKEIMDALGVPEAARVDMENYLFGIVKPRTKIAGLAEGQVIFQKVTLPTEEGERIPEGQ

The values are deposited in ChEMBL (CHEMBL3988442, “University of Dundee, Small-Polar-MMV Screening Library” (2021)).

Results are percentages, as filed. The record does not define 0% and 100%; most values in the screen are far below 50% and negative numbers occur (in some assays of this library far below -100). This is an unselected part of the compounds tested.

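Methionyl-tRNA synthetase (putative), Leishmania donovani (UniProt E9BF75). Primary screen of methionyl-tRNA synthetase; the read-out is not stated. The test concentration is not given. Values are per cent inhibition. About 68,000 compounds were tested under these conditions; 0.035% (about 24) showed 50% or more at least once.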

| SMILES | inhibition |
|---|---|
| `Cc1cnn(CC2CCCN2Cc2noc(C)n2)c1` (stereo not shown) | 16.33% |
| `CN(C)c1ncccc1CNC(=O)NCC(c1cccs1)N(C)C` (stereo not shown) | 13% |
| `COc1ncccc1C(=O)N1CCCC1c1c(C)nn(C)c1Cl` (stereo not shown) | 14.21% |
| `Cc1ccc(C(=O)NC2CCOc3ccccc32)cc1S(C)(=O)=O` (stereo not shown) | 1.545% |
| `Cn1ccnc1CN1CCOCC(Cc2ccccn2)C1` (stereo not shown) | 12.94% |
| `CN1C(=O)CCCC12CCCN(C(=O)c1cc(F)cc(F)c1)C2` (stereo not shown) | 18.27% |
| `COc1c(C)cc(CNCc2ccnc(N3CCOCC3)c2)cc1C` | 23.89% |
| `Nc1cc(C(=O)N2CCOC(Cc3cccc(C(F)(F)F)c3)C2)ccn1` (stereo not shown) | 9.589% |
| `COc1ccc(CCC(=O)Nc2ccncc2C)cc1` | 15.24% |
| `O=C(Nc1ccccc1CCO)c1cccc(CN2CC[C@H](O)C2)c1` | 15.08% |
| `COCCn1nc(C(=O)N2CCN(C)CC2C)ccc1=O` (stereo not shown) | 21.09% |
| `CN1CCCC1c1cncc(C(=O)NCCN2CCCC2)n1` (stereo not shown) | 10.11% |
| `Cc1ccc(CN(C)C(=O)NCC(C)(C)CCS(C)(=O)=O)s1` | -3.866% |
| `CCN(CC)C(=O)Cn1cc(C(=O)NCCc2nc(C)c(C)s2)nn1` | 9.61% |
| `Cc1ccoc1C(=O)N1CCO[C@H]2[C@H](OCCN(C)C)CC[C@@H]21` | 14.64% |
| `O=C(c1cccc(O)n1)N1CCC(O)(CN2CCC(F)(F)CC2)C1` (stereo not shown) | 6.824% |
| `COC1COC2(CCN(C(=O)c3cnc(C)cn3)CC2)C1` (stereo not shown) | -10.28% |
| `CCN1CC2(CC1=O)CN(C(C)=O)CCN(S(=O)(=O)CC)C2` (stereo not shown) | 11.59% |
| `COc1ccccc1[C@@H]1CN(CC2CCC2)C[C@H]1C(=O)O` | 10.11% |
| `COCCN1CCC2(CCN(Cc3nccs3)CC2)C1=O` | 11.3% |
| `CCC(=O)N(CCC(=O)O)Cc1ccc(F)c(F)c1` | 14.91% |
| `CN(Cc1n[nH]c2c1CCC2)C(=O)c1cc(-c2cccn2C)n[nH]1` | 11.15% |
| `O=C([C@H]1C[C@H]2OCC[C@H]2N(C(=O)c2cnccn2)C1)N1CCCCO1` | 12.59% |
| `CN(C)c1ncc(CNC(=O)Nc2ccccc2C(F)(F)F)n1C` | 1.795% |
| `CCOCCn1c(=O)[nH]c2cc(C(=O)N(C)Cc3nc(C)c[nH]3)ccc21` | 4.178% |
| `Cc1nn(C)c(N(C)C)c1CNCCC(=O)NC1CCCCC1` | 14.8% |
| `COc1ccnc(N2CCN(Cc3ncc(-c4ccccc4)o3)CC2)n1` | -1.902% |
| `CC(=O)c1cccc(S(=O)(=O)N2CSCC2C(=O)NCC(F)(F)F)c1` (stereo not shown) | 18.75% |
| `O=C(NCCc1ccccc1)N1CCCCC1C1OCCO1` (stereo not shown) | 4.872% |
| `Cc1cccc(CN2CC3(CCN(C4CCOC4)CC3)OCC2=O)n1` (stereo not shown) | 13.71% |
| `Cc1nc(CN2CCO[C@H]3[C@H](OCC(=O)N(C)C)CC[C@@H]32)cs1` | 0% |
| `Cn1ccc(C(=O)NCc2cccc(NC(=O)C3CCC3)c2)cc1=O` | 16.38% |
| `COc1ncccc1CNCc1c(C(C)C)nn(C)c1N(C)C` | 5.974% |
| `Cc1cc2n(n1)CC(CNCc1ccccc1-n1cccn1)CN2` (stereo not shown) | 17.49% |
| `O=C(NCCO)c1sc2ncccc2c1C1CNCCO1` (stereo not shown) | 13.83% |
| `CNC(=O)Cc1coc(-c2ccc(F)cc2)n1` | 9.137% |
| `COc1ccc(CN2C[C@@H]3CN(C(=O)[C@H]4CCCO4)C[C@@H]3C2=O)cc1` | 10.64% |
| `NCC1[C@H]2CN(Cc3ccccc3F)C[C@@H]12` (stereo partly shown) | 17.93% |
| `Cc1cnc(C(=O)N2CCCN(c3nc(C)cs3)CC2)cn1` | 19.94% |
| `COc1cccc(CC(=O)N2CCC(c3ccn4nccc4n3)CC2)c1` | 10.38% |
| `CC(CNc1nccc(C(C)C)n1)Oc1cccnc1` (stereo not shown) | 7.821% |
| `CC(C1CCN(Cc2c(Cl)cncc2Cl)CC1)N1CCOCC1` (stereo not shown) | 12.89% |
| `CC(C)(C)c1nc(CN2CCCN(Cc3cccs3)CC2)no1` | 29.55% |
| `CCN(CC)CCNCc1cc(O)c2cc(C)ccc2n1` | 14.89% |
| `Cc1nnc(NC(=O)c2c3c(nn2C2CCS(=O)(=O)C2)CCC3)s1` (stereo not shown) | 12.71% |
| `CCNC(=O)N(C)CCCc1n[nH]c(N)c1C#N` | 5.903% |
| `Cc1nnc(NCCC(=O)NCc2ccccc2)c(C#N)c1C` | 23.39% |
| `CCOc1cncc(NCCc2nnc3ccccn23)n1` | 24.68% |
| `O=C(c1cncc(N2CCC3(CCCNC3)C2)n1)N1CCCC1` (stereo not shown) | 8.571% |
| `CCNc1ncc2c(n1)CN(c1cccc(OC)c1)C2=O` | -0.2513% |
| `N#CC1CCCN(C(=O)Cn2ncc(N3CCCC3)cc2=O)C1` (stereo not shown) | 10.45% |
| `Cc1cc(C(=O)NCC2CCC3(CC2)OCCO3)[nH]n1` | 11.68% |
| `Fc1ccc(F)c(CN2CCC(c3n[nH]c4ncccc34)CC2)c1` | 14.06% |
| `CCCNC(=O)CNC(=O)c1scnc1C` | 7.311% |
| `CCS(=O)(=O)N1CCN(Cc2cccnc2)c2nc(C)ccc2C1` | -9.333% |
| `Cc1ncc(-c2ccnc(NCCO)n2)c(C2CCCCC2)n1` | 8.01% |
| `Cc1oncc1C(=O)N1C[C@H]2CCCC(N(C)Cc3cccs3)[C@H]2C1` (stereo partly shown) | 8.333% |
| `Cc1cc(C(=O)NCc2ccnc(N3CCN(C)CC3)c2)sc1C` | 17.37% |
| `CCCC(C(=O)NC1CCN(S(C)(=O)=O)CC1)c1ccccc1` (stereo not shown) | 16.55% |
| `O=C(C1CCCO1)N1CCC(n2cc(-c3ccsc3)nn2)CC1` (stereo not shown) | 14.29% |
| `CN1CCN(Cc2cccnc2)C(=O)C12CCN(C1CCOC1)CC2` (stereo not shown) | 16.25% |
| `Cc1nc2n(n1)CC(NCCc1cccs1)CC2` (stereo not shown) | 14.95% |
| `COc1cccc2cc(CNC(=O)N3CCCC(O)C3)oc12` (stereo not shown) | 3.286% |
| `CCc1c(C)nc(SCc2ccccn2)[nH]c1=O` | 13.28% |
| `c1csc(NCc2n[nH]c3c2CCN(CC2CC2)C3)n1` | 11.82% |
| `Cc1ncc2c(n1)CN(CC(=O)Nc1c(C)nn(C)c1C)CC2` | 10.34% |
| `Cc1nnc(CN(C)CC(=O)N2CCCC(C(F)(F)F)C2)n1C` (stereo not shown) | 2.719% |
| `O=C(c1ccc(-n2cccn2)nc1)N1CCCC(c2cnccn2)C1` (stereo not shown) | 6.962% |
| `O=C(NCCc1nnc2n1CCC2)NCC1(c2ccccc2F)CC1` | -6.843% |
| `Cc1noc(C)c1CN(C)C(=O)C1CCCCN1S(C)(=O)=O` (stereo not shown) | 14.25% |
| `c1ccc(CN2CCOC[C@H]2c2nc(-c3ccncc3)c[nH]2)nc1` | 9.774% |

Some entries from above, unchanged:

SMILES,inhibition
Nc1cc(C(=O)N2CCOC(Cc3cccc(C(F)(F)F)c3)C2)ccn1 (stereo not shown),9.589%
O=C(c1cccc(O)n1)N1CCC(O)(CN2CCC(F)(F)CC2)C1 (stereo not shown),6.824%
CCNc1ncc2c(n1)CN(c1cccc(OC)c1)C2=O,-0.2513%
NCC1[C@H]2CN(Cc3ccccc3F)C[C@@H]12 (stereo partly shown),17.93%
N#CC1CCCN(C(=O)Cn2ncc(N3CCCC3)cc2=O)C1 (stereo not shown),10.45%